Results taken from patent US20200368363A1 (MAGENTA THEERAPEUTICS, published 2020).
These are yes or no findings as the source states them, for the method shown. Some entries that bind do so weakly or less than the wild type.

Amino acid sequences for entries named in this document (tags omitted). A change or cut given only in a name is not applied to a line headed by its entry.
UniProt P06729: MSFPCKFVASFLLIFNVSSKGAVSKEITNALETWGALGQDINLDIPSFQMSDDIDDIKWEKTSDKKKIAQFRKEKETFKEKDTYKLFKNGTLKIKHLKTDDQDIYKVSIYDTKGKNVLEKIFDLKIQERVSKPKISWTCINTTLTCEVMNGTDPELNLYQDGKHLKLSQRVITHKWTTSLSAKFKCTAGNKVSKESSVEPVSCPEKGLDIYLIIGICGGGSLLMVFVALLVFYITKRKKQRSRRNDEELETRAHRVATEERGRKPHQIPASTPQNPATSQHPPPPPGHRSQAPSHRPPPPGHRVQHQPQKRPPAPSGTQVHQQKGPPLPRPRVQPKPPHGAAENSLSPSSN

Molecular target: human CD2 on cells (MOLT-4 human T lymphoblast cells; primary human T-cells; primary human NK cells) (human) (UniProt P06729)
Assay: flow cytometry on primary human T-cells, antibody titration, AF488 secondary, MFI

- binding: binds
B1: RPA-2.10 mIgG1 (antibody, V domains shown)
VH: EVKLVESGGGLVKPGGSLKLSCAASGFTFSSYDMSWVRQTPEKRLEWVASISGGGFLYYLDSVKGRFTISRDNARNILYLHMTSLRSEDTAMYYCARSSYGEIMDYWGQGTSVTVSS
VL: DILLTQSPAILSVSPGERVSFSCRASQRIGTSIHWYQQRTTGSPRLLIKYASESISGIPSRFSGSGSGTDFTLSINSVESEDVADYYCQQSHGWPFTFGGGTKLEIER
